In data set [1] the test system is RUNX1 (uveal melanoma nuclear extract) (Homo sapiens). Briefly: EMSA. To be noted: T97, T108 (weak), T142, T143 extracts, self competition abolished (100-fold text, 500-fold legend); EMSA: 10 mM Hepes pH 7.9, 10% glycerol, 0.1 mM EDTA, 0.5 mM DTT, 0.25 mM PMSF, 50 mM KCl, 2 ug poly(dI:dC); Tris-glycine gels at 4 C; protein in an extract; label: 5' 32P as probe, unlabeled as competitor. Background: Mobility shift assays separate free from complexed probe on a gel.

The test system is the same in data set [2]. Briefly: competition with a labelled probe. To be noted: EMSA: 10 mM Hepes pH 7.9, 10% glycerol, 0.1 mM EDTA, 0.5 mM DTT, 0.25 mM PMSF, 50 mM KCl, 2 ug poly(dI:dC), Tris-glycine gels at 4 C, protein in an extract, label: none (competitor).

We go through two sequences from paper PMC6214142.

Construct, isoform or probe ends are uncertain for at least one entry. Where cells or extracts were used, other partners may take part. For part of these data: Negatives hold for the conditions tested.

Take “GATCGGCTAATTTATGTGGTTTTTTTTGTAGA / GATCTCTACAAAAAAAACCACATAAATTAGCC [HTR2B RUNX1 site oligonucleotide]”: the binding result in data set [1] is “binds”.
“GATCGGCTAATTTATTTTTTTTTTTTTGTAGA / GATCTCTACAAAAAAAAAAAAATAAATTAGCC [RUNX1-mut]”: the binding result in data set [2] (probe N2, T143 extract, 100-fold excess) is on record as “no binding”; in data set [2] (probe N5, 100-fold or 500-fold excess) it was “no binding”.
